{
  "source": "paper PMC12669010",
  "target": "T1, Glial cell line-derived neurotrophic factor (GDNF) in RBL-2H3 cells (UniProt Q07731)",
  "T1 sequence": "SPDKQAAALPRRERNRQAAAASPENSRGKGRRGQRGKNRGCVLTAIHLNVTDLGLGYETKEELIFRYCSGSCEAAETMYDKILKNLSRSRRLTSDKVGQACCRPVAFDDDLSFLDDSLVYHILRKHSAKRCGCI",
  "experiment": "co-IP; cell lysates incubated overnight at 4 °C with magnetic beads bound to antibodies against GDNF or CaMKⅡ; beads washed five times with lysis buffer; SDS-PAGE and Western blot",
  "note": "Results are given in words; binding and its absence hold for the method and conditions named. In cells and extracts the contact can be indirect. Some entries that bind do so weakly or less than the wild type.",
  "data": [
    {"binder": "GDNF family receptor α1 (GFRα1), in RBL-2H3 cells (receptor, UniProt Q62997 25-430) DRLDCVKASDQCLKEQSCSTKYRTLRQCVAGKETNFSLTSGLEAKDECRSAMEALKQKSLYNCRCKRGMKKEKNCLRIYWSMYQSLQGNDLLEDSPYEPVNSRLSDIFRAVPFISDVFQQVEHISKGNNCLDAAKACNLDDTCKKYRSAYITPCTTSMSNEVCNRRKCHKALRQFFDKVPAKHSYGMLFCSCRDIACTERRRQTIVPVCSYEERERPNCLSLQDSCKTNYICRSRLADFFTNCQPESRSVSNCLKENYADCLLAYSGLIGTVMTPNYVDSSSLSVAPWCDCSNSGNDLEDCLKFLNFFKDNTCLKNAIQAFGNGSDVTMWQPAPPVQTTTATTTTAFRVKNKPLGPAGSENEIPTHVLPPCANLQAQKLKSNVSGSTHLCLSDSDFGKDGLAGASS", "values": [
      {"measurement": "binding", "value": "binds"}
    ]}
  ]
}
